Experimental data taken from paper PMC10111829.
No constants are given. Whether binding was seen depends on the method and setting. Binding seen in cells or lysates may run through a third protein. Some binding calls cover weakened binding; strength is not graded here.

By UniProt entry, the sequences of proteins in these tests, tags left out.
UniProt P35579: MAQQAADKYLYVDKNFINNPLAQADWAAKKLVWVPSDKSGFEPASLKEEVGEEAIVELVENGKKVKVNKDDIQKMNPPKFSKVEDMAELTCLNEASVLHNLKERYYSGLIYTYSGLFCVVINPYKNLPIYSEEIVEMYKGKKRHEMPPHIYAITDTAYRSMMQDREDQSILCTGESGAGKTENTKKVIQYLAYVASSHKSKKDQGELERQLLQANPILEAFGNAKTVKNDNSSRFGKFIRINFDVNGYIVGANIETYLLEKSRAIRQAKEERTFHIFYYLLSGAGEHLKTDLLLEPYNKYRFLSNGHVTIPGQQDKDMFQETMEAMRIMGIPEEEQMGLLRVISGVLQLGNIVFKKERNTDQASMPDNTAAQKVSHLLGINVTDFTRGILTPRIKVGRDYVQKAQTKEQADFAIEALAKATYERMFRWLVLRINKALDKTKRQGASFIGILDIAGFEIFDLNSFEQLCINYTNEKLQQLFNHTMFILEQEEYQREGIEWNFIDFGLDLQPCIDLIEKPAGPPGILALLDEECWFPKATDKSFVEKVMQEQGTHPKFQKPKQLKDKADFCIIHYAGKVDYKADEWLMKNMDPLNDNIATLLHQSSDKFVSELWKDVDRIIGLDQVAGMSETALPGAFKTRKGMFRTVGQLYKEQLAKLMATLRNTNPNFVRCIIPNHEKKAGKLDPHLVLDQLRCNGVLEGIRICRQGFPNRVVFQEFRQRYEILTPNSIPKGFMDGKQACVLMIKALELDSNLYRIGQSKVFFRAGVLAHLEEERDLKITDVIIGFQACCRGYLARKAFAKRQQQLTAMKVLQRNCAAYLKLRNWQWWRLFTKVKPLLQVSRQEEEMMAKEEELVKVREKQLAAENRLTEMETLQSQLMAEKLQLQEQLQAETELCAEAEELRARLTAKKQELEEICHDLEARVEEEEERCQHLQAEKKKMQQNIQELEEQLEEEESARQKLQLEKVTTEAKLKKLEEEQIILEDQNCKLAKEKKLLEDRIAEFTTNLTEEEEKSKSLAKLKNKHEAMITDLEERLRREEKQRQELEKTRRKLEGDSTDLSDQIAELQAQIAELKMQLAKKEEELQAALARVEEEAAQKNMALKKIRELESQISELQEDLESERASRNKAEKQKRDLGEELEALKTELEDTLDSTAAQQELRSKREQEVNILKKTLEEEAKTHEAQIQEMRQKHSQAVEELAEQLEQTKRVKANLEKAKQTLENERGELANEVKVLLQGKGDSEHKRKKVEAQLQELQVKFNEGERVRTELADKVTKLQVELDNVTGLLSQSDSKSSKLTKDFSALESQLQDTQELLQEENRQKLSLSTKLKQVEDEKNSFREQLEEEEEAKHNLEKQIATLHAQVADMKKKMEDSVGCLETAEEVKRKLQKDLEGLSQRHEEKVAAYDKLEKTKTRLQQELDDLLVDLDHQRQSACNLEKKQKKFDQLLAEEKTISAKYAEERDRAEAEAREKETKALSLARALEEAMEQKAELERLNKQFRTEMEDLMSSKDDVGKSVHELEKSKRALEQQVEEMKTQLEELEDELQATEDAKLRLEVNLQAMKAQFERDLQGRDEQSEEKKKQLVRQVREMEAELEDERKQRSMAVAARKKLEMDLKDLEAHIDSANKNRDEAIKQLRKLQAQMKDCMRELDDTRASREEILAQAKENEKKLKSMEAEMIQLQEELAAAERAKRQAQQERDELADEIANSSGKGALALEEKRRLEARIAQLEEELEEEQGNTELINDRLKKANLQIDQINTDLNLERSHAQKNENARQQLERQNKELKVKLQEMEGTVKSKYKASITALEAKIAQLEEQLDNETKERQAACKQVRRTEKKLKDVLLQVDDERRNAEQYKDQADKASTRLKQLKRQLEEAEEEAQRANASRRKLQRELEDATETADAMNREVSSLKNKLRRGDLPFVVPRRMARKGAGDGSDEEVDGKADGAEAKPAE

Molecular target: T1, TM4SF1 (human (endogenous in HCC cells)) (UniProt P30408)
T1 sequence: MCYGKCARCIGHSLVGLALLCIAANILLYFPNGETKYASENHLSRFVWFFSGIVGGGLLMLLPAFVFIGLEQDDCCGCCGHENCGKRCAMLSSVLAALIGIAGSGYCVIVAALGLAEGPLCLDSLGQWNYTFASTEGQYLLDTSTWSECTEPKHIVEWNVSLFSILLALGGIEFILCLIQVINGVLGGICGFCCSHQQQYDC
Assay: co-IP; HCC cells lysed with mild lysate; primary antibody against the decoy protein (TM4SF1) overnight at 4 °C, protein A agarose beads 2-4 h at 4 °C, 3-4 washes with lysis buffer, western blot

binding: binds
Substance: MYH9 (from UniProt P35579 1-1960)
